Library screen at single concentrations

A: 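Assay of Toxoplasma gondii numbers, read through their beta-galactosidase reporter with a colour substrate. Tested at 10 µM. Higher reads as fewer parasites (inferred from which compounds were picked for retests). About 67,000 compounds were tested under these conditions; 0.38% (about 260) showed 50% or more at least once.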
B: 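Cell assay of Leishmania donovani living inside macrophages; the read-out is not stated. Compounds at 30 µM. The record gives no direction; compounds that gave an IC50 in retests scored well above the rest, so higher reads as stronger inhibition. About 69,000 compounds were tested under these conditions; 1.5% (about 1,000) showed 50% or more at least once.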

Values are the deposited “Percent Effect”, in %.
The controls that fix the scale are not given in the record; negative values are as filed.
Compounds were drawn at random from those tested, without regard to their results.
Two or more numbers in one place are separate tests of the same structure; such repeats can differ widely.

For Cc1ccc(CN2CCCC3(CCN(S(C)(=O)=O)C3)C2)o1.O=C(O)C(F)(F)F (stereo unspecified) the result was A: -119.1%; B: 4.141%.
For Cl.Nc1ncnc2nc(C3CCCCN3)ccc12 (stereo unspecified) the result was A: -17.69%; B: 11.15%.
For Cc1ccc(C(=O)NCCC2CN(c3cnn(C)c(=O)c3)CCO2)s1 (stereo unspecified) the result was A: 15.25%; B: 2.751%.
For O=C1NCc2ccccc2CC12CCN(Cc1c(F)cccc1Cl)C2 (stereo unspecified) the result was A: 17.48%; B: 0.7589%.
For CCn1cc(NC(=O)C2CCC(=O)N2Cc2ccc(C)o2)cn1 (stereo unspecified) the result was A: 12.2%; B: 15.84%.
For CCC(=O)Nc1ccc(OCC(=O)N(C)C(C)c2ccon2)cc1 (stereo unspecified) the result was A: 5.447%; B: 21.57%.
For Cc1ccsc1CN(CCN(C)C)C(=O)c1ccccc1C#N the result was A: 0.1952%; B: 3.728%.
For COc1ccc(C(CNS(=O)(=O)c2cn(C)nc2C)N2CCCC2)cc1.Cl (stereo unspecified) the result was A: 9.313%; B: 23.75%.
For Cc1nn(C)cc1-c1cc(C(=O)N2CCc3ncc(Cl)cc3C2)on1 the result was A: -3.748%; B: 24.24%.
For O=C(O)C(F)(F)F.[H][C@@]12OCCN(c3ncccn3)[C@@]1([H])CC[C@H]2OCCN1CCCC1 the result was A: 2.457%; B: -0.9022% & -31.73%.
For COc1ccc(CC(=O)N2CCCC(c3cc(C)[nH]n3)C2)cc1 (stereo unspecified) the result was A: 11.87%; B: 4.59%.
For Cc1cccc(CN2CCc3ncnc(NC4CCC4)c3CC2)n1.O=C(O)C(F)(F)F.O=C(O)C(F)(F)F the result was A: -21.73%; B: 16.17%.
For COc1ncc(-c2cc(-c3ccn(C)c3)nc(N)c2C#N)cn1 the result was A: 4.957%; B: 4.864%.
For O=S1(=O)COCCN1CCOc1ccc(F)cc1 the result was A: -9.074%; B: -4.917%.
For COc1ncccc1N(C)C(=O)Cn1cc(-c2ccccc2)nn1 the result was A: 2.18%; B: 10.87%.
For Cc1ccccc1-c1cc(NC(=O)NC2CC2)n(CCO)n1 the result was A: 2.136%; B: -1.3%.
For CC(C)c1nc2c(n1C)CCN(CC(=O)Nc1ccnn1C(C)C)C2 the result was A: 10.93%; B: -2.56%.
For O=C(c1ccco1)N1CCCC(c2cc(C(F)(F)F)n3ncnc3n2)C1 (stereo unspecified) the result was A: 8.653%; B: 1.495% & -1.672%.
For Cc1cc(C(=O)N(C)S(=O)(=O)C(C)C)ccc1F the result was A: -0.4063%; B: 20.8%.
For [H][C@]12CC[C@]([H])(CC(=O)NC1)N2C(=O)Cc1ccsc1 the result was A: -10.86%; B: 32.53%.
For CC(c1ncc(C(C)(C)C)o1)N1CCN(Cc2ccco2)CC1 (stereo unspecified) the result was A: 5.757%; B: 11.82%.
For Cc1nc(CN2CCC(c3nc4ccccc4n3C)CC2)co1 the result was A: 4.529%; B: 19.22% & -4.816%.
For O=C(O)C(F)(F)F.O=C(O)C(F)(F)F.[H][C@@]12CCN(Cc3ccccn3)C[C@]1(C(=O)N1CCCO1)CCO2 the result was A: 8.83%; B: -3.474%.
For [H][C@]12CC[C@]([H])(CN(Cc3ccncc3)C1)N(C(=O)CCC1CCCC1)C2 the result was A: -39.08%; B: -9.33%.
For COc1ccc(CC(=O)N2CCCC(Cn3cc(CN)nn3)C2)cc1 (stereo unspecified) the result was A: 16.74%; B: 19.42%.
For c1ncn(CC2CCCCN2Cc2csc(-c3ccsc3)n2)n1 (stereo unspecified) the result was A: -3.597%; B: 30.24%.
For Cc1noc(C)c1C(=O)NCc1ccc(N2CCCCCC2)nc1 the result was A: -1.618%; B: 36.14%.
For COc1c(CNCCc2c[nH]c3ccccc23)c(C)nn1C the result was A: 31.94%; B: 9.146%.
For O=C(CN1CCCC1c1nc2cc(F)ccc2[nH]1)NCc1ccccn1 (stereo unspecified) the result was A: 19.46%; B: 34.7%.
For CC(C)c1nc(CC(=O)Nc2nc(CN3CCCCCC3)cs2)cs1 the result was A: 19.08%; B: 12.99%.
For OC(CN1CCCCc2ccccc21)Cn1cccn1 (stereo unspecified) the result was A: 1.561%; B: 24.23%.
For O=C(O)C(F)(F)F.O=C(O)C(F)(F)F.[H][C@@]12C[C@@H](Oc3cccnc3)CN1CCN(C(=O)c1ccc(F)cc1)C2 the result was A: 4.926%; B: 17%.
For Cc1nccc(C2CCCN(C(=O)c3cncnc3)C2)n1 (stereo unspecified) the result was A: -6.654%; B: 7.843%.
For CN1CCOC(CNCc2coc(-c3cccs3)n2)C1 (stereo unspecified) the result was B: 11.23%.
For COCCN(c1cc(C)nc2nc(C(F)(F)F)nn12)C1CCCC1 the result was A: -0.3604%; B: -6.858%.

2 of the entries, repeated:

Compound	A	B
Cc1cc(C(=O)N(C)S(=O)(=O)C(C)C)ccc1F	-0.4063%	20.8%
O=C1NCc2ccccc2CC12CCN(Cc1c(F)cccc1Cl)C2 (stereo unspecified)	17.48%	0.7589%

From ChEMBL document CHEMBL3988442, “University of Dundee, Small-Polar-MMV Screening Library” (2021).